Data as given in patent US20150030603A1.
Results are given in words; binding and its absence hold for the method and conditions named. Some binding calls cover weakened binding; strength is not graded here.

Protein sequences, listed by entry. Tags and fused reporters are not part of them. Lines headed by an entry give the natural chain unless they say otherwise; changes in a name come on top. Residues count along the entry.
UniProt Q02763, residues 23-745: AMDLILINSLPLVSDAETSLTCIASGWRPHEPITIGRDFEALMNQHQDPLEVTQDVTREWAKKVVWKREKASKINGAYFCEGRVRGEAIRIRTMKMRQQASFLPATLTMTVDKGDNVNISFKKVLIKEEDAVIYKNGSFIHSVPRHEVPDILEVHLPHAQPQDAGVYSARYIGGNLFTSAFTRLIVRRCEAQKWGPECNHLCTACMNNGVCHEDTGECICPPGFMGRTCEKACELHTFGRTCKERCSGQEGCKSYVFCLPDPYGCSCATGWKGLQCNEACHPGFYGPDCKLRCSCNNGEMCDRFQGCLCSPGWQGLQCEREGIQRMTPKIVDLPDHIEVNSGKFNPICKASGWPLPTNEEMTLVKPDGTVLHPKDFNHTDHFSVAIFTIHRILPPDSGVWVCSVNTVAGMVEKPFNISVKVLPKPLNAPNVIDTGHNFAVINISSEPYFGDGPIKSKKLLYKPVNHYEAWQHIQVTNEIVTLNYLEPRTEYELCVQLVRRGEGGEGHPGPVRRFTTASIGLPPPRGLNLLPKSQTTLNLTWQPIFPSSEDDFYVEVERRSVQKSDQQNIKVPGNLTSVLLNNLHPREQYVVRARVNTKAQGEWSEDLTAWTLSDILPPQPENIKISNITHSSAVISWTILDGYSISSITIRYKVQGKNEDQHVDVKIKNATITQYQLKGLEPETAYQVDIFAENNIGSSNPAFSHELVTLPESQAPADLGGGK
UniProt O15123: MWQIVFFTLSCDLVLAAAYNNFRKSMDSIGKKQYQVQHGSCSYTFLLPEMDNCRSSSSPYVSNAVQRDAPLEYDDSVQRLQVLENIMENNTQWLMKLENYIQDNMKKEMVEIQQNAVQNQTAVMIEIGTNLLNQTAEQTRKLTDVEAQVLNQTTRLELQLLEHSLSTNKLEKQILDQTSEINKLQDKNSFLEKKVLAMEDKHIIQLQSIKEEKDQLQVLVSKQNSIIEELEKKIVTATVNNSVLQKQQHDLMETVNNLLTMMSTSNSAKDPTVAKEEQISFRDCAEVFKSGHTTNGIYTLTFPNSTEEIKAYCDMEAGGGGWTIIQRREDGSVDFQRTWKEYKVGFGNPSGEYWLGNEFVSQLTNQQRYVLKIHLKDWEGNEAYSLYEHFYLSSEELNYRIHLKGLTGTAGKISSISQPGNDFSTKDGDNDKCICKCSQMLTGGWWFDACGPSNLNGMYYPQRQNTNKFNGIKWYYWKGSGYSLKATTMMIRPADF

Target: hTie2-Fc (R&D Systems) (human) (UniProt Q02763)
Assay: sandwich (complex) ELISA: coated Tie2-Fc, FLAG-Ang2 0.25 µg/ml captured and detected through 10D6 2 µg/ml and anti-mouse IgG-HRP (OD450)

- binding: binds
Substance: FLAG-tagged hAng-2 (from UniProt O15123 19-496) (ligand)
